Experimental data as given in article PMC5626541.
No constants are given. Whether binding was seen depends on the method and setting. Binding can be weak; no strength is given. For some assays here: In cells and extracts the contact can be indirect. For some assays here: Where a sequence is shown, tags or fusion partners need not be part of it. Values belong to the molecule of their own block, whether it stands above or below them.

Amino acid sequences for entries named in this document (tags omitted). A change or cut given only in a name is not applied to a line headed by its entry.
UniProt P19491: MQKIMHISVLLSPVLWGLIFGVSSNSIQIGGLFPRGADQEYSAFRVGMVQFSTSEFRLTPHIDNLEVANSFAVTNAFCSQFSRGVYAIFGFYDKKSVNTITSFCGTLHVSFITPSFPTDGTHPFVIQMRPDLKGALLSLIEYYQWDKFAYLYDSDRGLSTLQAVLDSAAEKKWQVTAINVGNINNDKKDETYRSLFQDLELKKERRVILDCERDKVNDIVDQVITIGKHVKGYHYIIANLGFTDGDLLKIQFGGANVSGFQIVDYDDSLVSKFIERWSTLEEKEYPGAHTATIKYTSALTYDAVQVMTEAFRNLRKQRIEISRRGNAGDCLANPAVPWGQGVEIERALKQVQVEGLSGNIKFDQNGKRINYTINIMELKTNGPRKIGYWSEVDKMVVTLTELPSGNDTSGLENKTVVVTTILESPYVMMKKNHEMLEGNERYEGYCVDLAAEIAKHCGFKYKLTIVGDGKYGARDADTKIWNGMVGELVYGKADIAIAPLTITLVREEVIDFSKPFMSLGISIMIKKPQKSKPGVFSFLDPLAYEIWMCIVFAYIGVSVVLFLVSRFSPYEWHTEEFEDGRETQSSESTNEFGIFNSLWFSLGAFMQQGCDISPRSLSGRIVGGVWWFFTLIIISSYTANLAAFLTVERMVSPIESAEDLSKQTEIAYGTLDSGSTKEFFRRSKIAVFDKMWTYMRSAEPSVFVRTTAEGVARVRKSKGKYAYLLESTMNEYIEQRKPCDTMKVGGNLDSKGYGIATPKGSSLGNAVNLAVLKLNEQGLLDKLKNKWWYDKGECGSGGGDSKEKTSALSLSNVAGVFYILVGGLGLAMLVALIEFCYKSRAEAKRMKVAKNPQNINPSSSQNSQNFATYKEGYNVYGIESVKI
UniProt Q9EP80: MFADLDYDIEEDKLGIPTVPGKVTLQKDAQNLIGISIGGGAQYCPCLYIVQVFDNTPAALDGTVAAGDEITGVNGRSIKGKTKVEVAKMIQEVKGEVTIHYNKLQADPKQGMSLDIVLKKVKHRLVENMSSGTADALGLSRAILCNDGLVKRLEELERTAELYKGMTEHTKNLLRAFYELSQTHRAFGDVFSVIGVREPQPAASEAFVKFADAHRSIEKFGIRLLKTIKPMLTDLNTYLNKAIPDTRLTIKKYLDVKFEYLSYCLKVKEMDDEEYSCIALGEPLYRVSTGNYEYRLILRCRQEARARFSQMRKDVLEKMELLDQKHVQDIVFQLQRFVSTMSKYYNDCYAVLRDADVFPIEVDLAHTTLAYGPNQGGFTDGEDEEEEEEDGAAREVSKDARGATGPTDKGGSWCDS
UniProt P17427: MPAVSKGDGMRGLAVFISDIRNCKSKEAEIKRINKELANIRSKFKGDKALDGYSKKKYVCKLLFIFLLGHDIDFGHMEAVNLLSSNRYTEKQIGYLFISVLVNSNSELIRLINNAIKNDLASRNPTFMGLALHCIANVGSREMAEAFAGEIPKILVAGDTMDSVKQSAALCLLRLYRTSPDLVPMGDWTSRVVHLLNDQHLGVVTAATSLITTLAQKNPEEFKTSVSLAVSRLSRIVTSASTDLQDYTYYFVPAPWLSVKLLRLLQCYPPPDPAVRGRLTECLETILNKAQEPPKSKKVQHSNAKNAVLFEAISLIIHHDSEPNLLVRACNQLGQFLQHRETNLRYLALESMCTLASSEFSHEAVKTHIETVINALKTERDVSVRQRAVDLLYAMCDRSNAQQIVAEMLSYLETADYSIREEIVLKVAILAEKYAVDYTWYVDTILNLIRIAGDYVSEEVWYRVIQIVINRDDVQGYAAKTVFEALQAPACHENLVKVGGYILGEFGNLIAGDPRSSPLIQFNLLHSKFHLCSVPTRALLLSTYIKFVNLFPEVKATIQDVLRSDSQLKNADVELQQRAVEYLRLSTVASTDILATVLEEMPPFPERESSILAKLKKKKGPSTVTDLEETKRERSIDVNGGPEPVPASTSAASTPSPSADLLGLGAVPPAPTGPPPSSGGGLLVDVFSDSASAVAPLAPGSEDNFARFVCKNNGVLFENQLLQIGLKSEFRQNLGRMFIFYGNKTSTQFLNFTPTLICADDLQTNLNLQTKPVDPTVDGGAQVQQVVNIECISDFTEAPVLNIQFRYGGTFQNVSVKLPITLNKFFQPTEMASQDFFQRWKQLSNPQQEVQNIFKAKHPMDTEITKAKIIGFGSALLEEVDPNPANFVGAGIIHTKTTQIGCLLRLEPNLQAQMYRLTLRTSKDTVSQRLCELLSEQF

How the values were obtained:
GST-GluA2 C terminus = GST-GluA2 C terminus (UniProt P19491); assay: pull-down; GST or GST fusion immobilised on glutathione agarose, incubated at 4°C with purified protein in direct binding buffer (20 mM Tris-HCl, 150 mM NaCl, 5 mM imidazole, 2 mM MgCl2, 1% Triton X-100, 1 mM DTT), Western blot; both purified
GST-PICK1 (wild type) = GST-PICK1 (wild type) (UniProt Q9EP80); assay: pull-down; competition with purified proteins: GST-WT-PICK1 or GST-DDAA-PICK1 immobilised on glutathione agarose, incubated with 20 nM his6-Myc-GluA2 C terminus and 0–30 nM his6 α-adaptin; both purified
[1] = target: GST-α-appendage (appendage domain of α-adaptin) (UniProt P17427); assay: pull-down; GST or GST fusion immobilised on glutathione agarose, incubated at 4°C with purified protein in direct binding buffer (20 mM Tris-HCl, 150 mM NaCl, 5 mM imidazole, 2 mM MgCl2, 1% Triton X-100, 1 mM DTT), Western blot; both purified
[2] = target: GFP-dynamin 2 GTPase domain (UniProt P39052); assay: co-IP; GFP-trap pulldown: extracts of cotransfected HEK293 cells in lysis buffer incubated with 10 µl GFP-trap agarose beads, Western blot
GFP-PICK1 BAR domain = GFP-PICK1 BAR domain (UniProt Q9EP80); assay: as above

Molecule: his6-PICK1 (wild type) (from UniProt Q9EP80 1-416)
binding (GST-GluA2 C terminus): binds
binding [1]: binds

Molecule: his6-D356A-PICK1 (from UniProt Q9EP80 1-416)
binding (GST-GluA2 C terminus): binds

Molecule: Flag-PICK1 (from UniProt Q9EP80 1-416)
binding [2]: binds

Results, then the molecule that gave them:

binding (GST-GluA2 C terminus): binds
Molecule: his6-D189A-PICK1 (from UniProt Q9EP80 1-416)

binding (GST-PICK1 (wild type)): binds
Molecule: his6-Myc-GluA2 C terminus (from UniProt P19491) (domain or fragment)

binding (GST-PICK1 (wild type)): binds
Molecule: his6 α-appendage domain (from UniProt P17427) (domain or fragment)

binding (GFP-PICK1 BAR domain): binds
B1: HA-dynamin 2 (protein, UniProt P39052 1-870)
chain: MGNRGMEELIPLVNKLQDAFSSIGQSCHLDLPQIAVVGGQSAGKSSVLENFVGRDFLPRGSGIVTRRPLILQLIFSKTEYAEFLHCKSKKFTDFDEVRQEIEAETDRVTGTNKGISPVPINLRVYSPHVLNLTLIDLPGITKVPVGDQPPDIEYQIKDMILQFISRESSLILAVTPANMDLANSDALKLAKEVDPQGLRTIGVITKLDLMDEGTDARDVLENKLLPLRRGYIGVVNRSQKDIEGRKDIRAALAAERKFFLSHPAYRHMADRMGTPHLQKTLNQQLTNHIRESLPTLRSKLQSQLLSLEKEVEEYKNFRPDDPTRKTKALLQMVQQFGVDFEKRIEGSGDQVDTLELSGGARINRIFHERFPFELVKMEFDEKDLRREISYAIKNIHGVRTGLFTPDLAFEAIVKKQVVKLKEPCLKCVDLVIQELISTVRQCTSKLSSYPRLREETERIVTTYIREREGRTKDQILLLIDIEQSYINTNHEDFIGFANAQQRSTQLNKKRAIPNQGEILVIRRGWLTINNISLMKGGSKEYWFVLTAESLSWYKDEEEKEKKYMLPLDNLKIRDVEKGFMSNKHVFAIFNTEQRNVYKDLRQIELACDSQEDVDSWKASFLRAGVYPEKDQAENEDGAQENTFSMDPQLERQVETIRNLVDSYVAIINKSIRDLMPKTIMHLMINNTKAFIHHELLAYLYSSADQSSLMEESAEQAQRRDDMLRMYHALKEALNIIGDISTSTVSTPVPPPVDDTWLQNTSSHSPTPQRRPVSSVHPPGRPPAVRGPTPGPPLIPMPVGATSSFSAPPIPSRPGPQNVFANNDPFSAPPQIPSRPARIPPGIPPGVPSRRAPAAPSRPTIIRPAEPSLLD
